The results are deposited in PubChem (AID912; NCATS, 2007).

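A cell-based FRET test of anthrax lethal toxin entry, tracked through the 460 nm emission signal; the cell line is not named here.
Each compound was tested as a concentration series from about 0.0005 to 40 µM.
The number is the fitted AC50 of the 460 nm signal alone; lower values mean a more potent effect. A falling signal goes with compounds filed as inhibitors or cytotoxic, a rising one with activators or fluorescent compounds (inferred from the filed classes).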

Values are in nM.
Common to all entries: measured here: 460 nm channel.
Part of the compounds only, not a random draw; the main read-out is not listed here.
A potency from a partial, single-point or poor curve is only a rough figure.
The first word of each remark tells which way the curve ran; it can be opposite to the aim of the assay.

For COc1ccc(C2=NO[C@@H]3C(=O)N(c4ccc(C)cc4C)C(=O)[C@H]23)cc1OC the result was AC50 3.162 nM (falling, full curve, poor fit). COC(=O)[C@@]1(Cc2ccc(F)cc2)[C@H]2c3cc(C(=O)N(C)C)n(Cc4ccc(C)o4)c3C[C@H]2CN1C(=O)c1ccccc1 read AC50 25118 nM (falling, single point). O=C(O)c1cc(Cl)cc(Cc2cc(Cl)cc(C(=O)O)c2O)c1O gave AC50 794.3 nM (falling, single point). O=S(=O)(/N=S1/CC=CCN1S(=O)(=O)c1ccccc1)c1ccccc1 (configuration not stated) gave AC50 12589 nM (falling, single point). CCOC(=O)N1CCN(C(=O)c2ccc(CS(=O)(=O)c3ccccc3OC)o2)CC1 read AC50 15848 nM (falling, single point). Result for Cc1cc(NC(=O)C2CCCN(S(=O)(=O)c3c(C)noc3C)C2)n[nH]1 (configuration not stated) was AC50 12589 nM (rising, partial curve).

CSc1cccc(NC(=O)c2ccco2)c1 gave AC50 12589 nM (falling, single point). Result for O=c1c(-c2ccccc2)nc2cnc(N3CCNCC3)nc2n1Cc1cccs1 was AC50 10000 nM (rising, partial curve). COc1ccc(C(CC(=O)O)NC(=O)c2cccs2)cc1 (configuration not stated) read AC50 10 nM (falling, full curve, poor fit). Result for Cc1cc(C)n(-c2nc3ccccc3c(=O)n2OCc2ccc(F)cc2)n1 was AC50 501.2 nM (falling, full curve). For COCCn1c(=O)c(-c2cc(F)cc(F)c2)nc2cnc(OCc3ccccc3)nc21 the result was AC50 5012 nM (rising, partial curve). O=C(O)c1cc(=O)c2ccc(Cl)cc2[nH]1 gave AC50 12589 nM (falling, single point).

CCNc1nc(SCCOc2ccccc2)nc(N(C)C)n1 gave AC50 25118 nM (rising, single point). c1ccc(C[C@@H](c2ccccc2)N2CCCCC2)cc1 read AC50 1995 nM (falling, full curve, poor fit). COc1ccc(OCC(O)Cn2c(=N)n(CCN3CCCCC3)c3ccccc32)cc1 (configuration not stated) read AC50 10000 nM (falling, partial curve). Result for CN(C)CCCN1c2ccc(O)cc2Sc2ccc(Cl)cc21 was AC50 2512 nM (falling, single point). Cc1c(C(=O)Nc2ccc3c(c2)OCCO3)sc2nc(-c3ccccc3)cn12 gave AC50 10000 nM (falling, partial curve). COc1ccc(-c2nnc(SCC(=O)c3cccs3)o2)c(OC)c1 read AC50 10000 nM (rising, single point).

CCCc1cc(C(=O)Nc2sc(C)c(CC)c2C#N)no1 read AC50 12589 nM (falling, partial curve). CCOc1ccc(-n2c(SCc3nc(-c4cccs4)no3)nnc2-c2ccncc2)cc1 read AC50 3162 nM (rising, full curve). With CCc1nc2ccccc2c(NC(=O)CN2CCC(C)CC2)c1C the assay gave AC50 3162 nM (falling, full curve, poor fit). Cc1noc(C)c1-c1ccc2ncnc(Nc3ccc(F)cc3)c2c1 read AC50 2512 nM (falling, partial curve). O=c1c(-c2cc(F)cc(F)c2)nc2cnc(N3CCNCC3)nc2n1C1CC1 read AC50 12589 nM (rising, partial curve). Result for O=C(c1sc2ccccc2c1Cl)N(Cc1cccs1)C1CCS(=O)(=O)C1 (configuration not stated) was AC50 12589 nM (falling, partial curve).

Result for CC1CN(CC(=O)N2CCc3[nH]c4ccccc4c3C2)CC(C)O1 (configuration not stated) was AC50 25118 nM (rising, single point). With CN1CCN(S(=O)(=O)c2ccc(NC(=O)Nc3cccc(Cl)c3)cc2)CC1 the assay gave AC50 15848 nM (falling, partial curve). CC(=O)c1cc2c(cc1NC(=O)c1cc(C)nn1-c1ccccc1)OCO2 gave AC50 5012 nM (rising, single point). Result for O=C(c1ccco1)N1CCC2(CCCN(C(c3ccccc3)c3ccccc3)C2)CC1 was AC50 12589 nM (rising, single point). O=C(O)Cc1c[nH]c2ccc(F)cc12 read AC50 5012 nM (rising, single point). COc1cc(NS(=O)(=O)c2ccc(F)cc2)c(C(=O)O)cc1OC read AC50 5012 nM (rising, single point).

For reference, 2 entries once more:

For CSc1cccc(NC(=O)c2ccco2)c1 the result was AC50 12589 nM (falling, single point).
For CC(=O)c1cc2c(cc1NC(=O)c1cc(C)nn1-c1ccccc1)OCO2 the result was AC50 5012 nM (rising, single point).